Results: PMC9708910
Results are given in words; binding and its absence hold for the method and conditions named. In cells and extracts the contact can be indirect. Some entries that bind do so weakly or less than the wild type.

Amino acid sequences for entries named in this document (tags omitted).
UniProt Q00839: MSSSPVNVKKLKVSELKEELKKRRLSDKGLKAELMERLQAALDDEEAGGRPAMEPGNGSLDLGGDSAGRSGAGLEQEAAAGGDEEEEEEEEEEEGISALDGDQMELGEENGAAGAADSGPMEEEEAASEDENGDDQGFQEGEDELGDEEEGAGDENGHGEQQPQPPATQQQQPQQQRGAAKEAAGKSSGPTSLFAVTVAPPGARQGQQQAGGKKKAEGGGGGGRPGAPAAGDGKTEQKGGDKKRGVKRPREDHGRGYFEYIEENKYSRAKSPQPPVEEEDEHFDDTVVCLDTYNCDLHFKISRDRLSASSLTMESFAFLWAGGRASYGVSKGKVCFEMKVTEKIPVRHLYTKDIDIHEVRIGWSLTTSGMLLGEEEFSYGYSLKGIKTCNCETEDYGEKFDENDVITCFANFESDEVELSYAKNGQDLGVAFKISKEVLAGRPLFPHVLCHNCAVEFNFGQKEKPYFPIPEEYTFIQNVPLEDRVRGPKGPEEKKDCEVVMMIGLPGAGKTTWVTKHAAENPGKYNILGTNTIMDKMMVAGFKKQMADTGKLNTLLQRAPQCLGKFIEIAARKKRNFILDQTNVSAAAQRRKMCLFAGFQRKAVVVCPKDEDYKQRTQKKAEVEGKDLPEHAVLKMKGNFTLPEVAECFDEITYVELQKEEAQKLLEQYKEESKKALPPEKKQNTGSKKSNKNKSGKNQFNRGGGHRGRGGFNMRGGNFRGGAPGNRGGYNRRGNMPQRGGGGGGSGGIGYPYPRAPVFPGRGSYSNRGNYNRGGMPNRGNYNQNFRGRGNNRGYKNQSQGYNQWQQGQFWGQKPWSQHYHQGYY
UniProt Q92793: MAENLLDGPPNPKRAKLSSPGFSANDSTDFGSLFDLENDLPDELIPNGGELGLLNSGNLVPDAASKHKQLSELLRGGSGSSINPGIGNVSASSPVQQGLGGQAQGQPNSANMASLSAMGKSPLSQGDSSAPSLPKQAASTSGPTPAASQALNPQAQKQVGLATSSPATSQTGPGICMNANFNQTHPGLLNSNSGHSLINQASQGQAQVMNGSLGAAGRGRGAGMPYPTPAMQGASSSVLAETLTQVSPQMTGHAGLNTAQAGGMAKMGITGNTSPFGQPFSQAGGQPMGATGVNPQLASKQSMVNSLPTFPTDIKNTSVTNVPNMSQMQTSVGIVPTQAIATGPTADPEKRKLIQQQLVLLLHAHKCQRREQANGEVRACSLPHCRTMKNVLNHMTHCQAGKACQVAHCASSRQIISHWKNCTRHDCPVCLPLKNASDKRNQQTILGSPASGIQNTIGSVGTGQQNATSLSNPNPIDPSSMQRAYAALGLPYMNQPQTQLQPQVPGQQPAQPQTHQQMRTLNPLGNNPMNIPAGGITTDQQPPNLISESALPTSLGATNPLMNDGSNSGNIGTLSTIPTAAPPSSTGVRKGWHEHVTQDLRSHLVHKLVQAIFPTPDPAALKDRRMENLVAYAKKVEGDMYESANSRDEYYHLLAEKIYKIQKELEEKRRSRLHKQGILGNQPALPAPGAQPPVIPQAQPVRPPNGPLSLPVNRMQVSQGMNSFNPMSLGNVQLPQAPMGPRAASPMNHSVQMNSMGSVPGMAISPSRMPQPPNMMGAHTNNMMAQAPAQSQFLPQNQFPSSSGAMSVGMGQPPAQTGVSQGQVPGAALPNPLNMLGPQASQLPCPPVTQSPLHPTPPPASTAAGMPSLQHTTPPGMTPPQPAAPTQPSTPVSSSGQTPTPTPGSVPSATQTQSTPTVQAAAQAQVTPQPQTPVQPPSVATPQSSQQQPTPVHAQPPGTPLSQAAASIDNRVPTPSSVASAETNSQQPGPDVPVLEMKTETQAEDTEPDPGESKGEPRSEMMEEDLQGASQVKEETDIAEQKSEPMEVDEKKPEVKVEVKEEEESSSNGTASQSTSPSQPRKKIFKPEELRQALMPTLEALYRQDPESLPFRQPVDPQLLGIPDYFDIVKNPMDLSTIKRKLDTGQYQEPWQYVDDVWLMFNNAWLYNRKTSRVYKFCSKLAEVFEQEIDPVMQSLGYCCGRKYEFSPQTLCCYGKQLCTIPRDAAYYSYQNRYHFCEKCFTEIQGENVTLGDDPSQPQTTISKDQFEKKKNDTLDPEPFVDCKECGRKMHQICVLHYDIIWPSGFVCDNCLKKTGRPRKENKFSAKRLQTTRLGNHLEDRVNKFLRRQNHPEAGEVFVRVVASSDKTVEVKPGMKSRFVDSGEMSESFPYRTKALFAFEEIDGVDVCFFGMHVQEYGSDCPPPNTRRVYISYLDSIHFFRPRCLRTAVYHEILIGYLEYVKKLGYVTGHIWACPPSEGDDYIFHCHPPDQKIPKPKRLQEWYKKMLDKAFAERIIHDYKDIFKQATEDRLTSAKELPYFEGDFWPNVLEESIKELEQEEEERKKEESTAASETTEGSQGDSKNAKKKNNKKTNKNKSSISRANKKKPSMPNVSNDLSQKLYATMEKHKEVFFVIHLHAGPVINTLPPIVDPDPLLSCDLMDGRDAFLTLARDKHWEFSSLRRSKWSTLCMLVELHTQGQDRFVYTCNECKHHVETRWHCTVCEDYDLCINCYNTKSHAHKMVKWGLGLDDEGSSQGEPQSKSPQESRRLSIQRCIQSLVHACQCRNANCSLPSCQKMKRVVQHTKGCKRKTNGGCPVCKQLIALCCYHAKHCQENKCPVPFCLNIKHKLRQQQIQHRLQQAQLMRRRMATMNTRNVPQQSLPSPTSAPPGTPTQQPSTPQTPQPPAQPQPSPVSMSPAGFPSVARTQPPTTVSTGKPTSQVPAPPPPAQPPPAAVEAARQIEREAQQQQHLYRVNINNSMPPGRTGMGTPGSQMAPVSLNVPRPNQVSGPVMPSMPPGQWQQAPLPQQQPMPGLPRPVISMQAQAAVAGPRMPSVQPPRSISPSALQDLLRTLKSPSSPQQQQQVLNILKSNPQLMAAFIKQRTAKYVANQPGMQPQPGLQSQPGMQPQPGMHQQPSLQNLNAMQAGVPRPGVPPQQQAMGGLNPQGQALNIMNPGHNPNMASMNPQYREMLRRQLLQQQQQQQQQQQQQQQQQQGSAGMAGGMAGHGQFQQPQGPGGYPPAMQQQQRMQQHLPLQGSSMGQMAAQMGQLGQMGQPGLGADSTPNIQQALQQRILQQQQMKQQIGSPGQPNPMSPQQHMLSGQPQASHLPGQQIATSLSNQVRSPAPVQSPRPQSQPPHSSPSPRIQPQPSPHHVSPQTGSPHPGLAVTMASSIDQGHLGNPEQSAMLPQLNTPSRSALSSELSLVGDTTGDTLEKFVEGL

Biological target: heterogeneous nuclear ribonucleoprotein U (human (endogenous in Tfh cells)) (UniProt Q00839)
Assay: co-IP; Tfh cells lysed with RIPA buffer; anti-hnRNPU antibody (1:100) and anti-CBP antibody (1:100) used to immunoprecipitate hnRNPU and CBP, respectively; Co-IP assay kit (Thermo Fisher Scientific); detection by western blotting

CREB-binding protein (from UniProt Q92793 1-2442)
binding: binds
